{
  "source": "patent US4551273A",
  "about": "(Eisai Co., Ltd., priority 1983, dated 1985)",
  "assay": "general procedure: Boc solid-phase peptide synthesis; benzhydrylamine resin (2 mmol/5 g amino group); DCC",
  "conditions": "whole synthesis",
  "note": "HELM strings list residues between dots; [ac] is acetyl, [am] amide, other brackets name non-standard units.",
  "data": [
    {"substance": "PEPTIDE1{[NMeTyr].G.G.F.L.R.R.[dI].R.P.K.[dL].K.W.[am]}$$$$V2.0", "values": [
      {"measurement": "crude mass", "value": 850, "unit": "mg"},
      {"measurement": "isolated yield", "setting": "scale of the general procedure 5 g resin (2 mmol)", "value": 3.5, "unit": "%"}
    ]}
  ]
}
